Assay results from PMC9354084 (ACS Chemical Neuroscience, 2022).

Test: PAMPA-BBB permeability assay
Conditions: predicted from PAMPA Pe

NS(=O)(=O)c1cc(C(=O)O)c(NCc2ccco2)cc1Cl [furosemide, reference compound]
CNS prediction: CNS - (CNS -: low BBB permeation predicted, Pe (×10-6 cm s-1) < 2.0)
